This is one part of the list. This is a noisy data set.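 Tm was set to 64 °C where no melting was found, and many curves are irregular.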
Compound: CCc1cnccc1C(=O)Nc1cc2c(cc1F)NC(=O)CC2
Test: melting temperature shift (DMSO Tm minus MBE1-treated Tm) in cellular thermal proteome profiling; higher = less thermal stabilization by MBE1 (negative = stabilized by MBE1)
Details: A375

Protein sequences, listed by entry. Tags and fused reporters are not part of them. Lines headed by an entry give the natural chain unless they say otherwise; changes in a name come on top.
UniProt Q9H3G5: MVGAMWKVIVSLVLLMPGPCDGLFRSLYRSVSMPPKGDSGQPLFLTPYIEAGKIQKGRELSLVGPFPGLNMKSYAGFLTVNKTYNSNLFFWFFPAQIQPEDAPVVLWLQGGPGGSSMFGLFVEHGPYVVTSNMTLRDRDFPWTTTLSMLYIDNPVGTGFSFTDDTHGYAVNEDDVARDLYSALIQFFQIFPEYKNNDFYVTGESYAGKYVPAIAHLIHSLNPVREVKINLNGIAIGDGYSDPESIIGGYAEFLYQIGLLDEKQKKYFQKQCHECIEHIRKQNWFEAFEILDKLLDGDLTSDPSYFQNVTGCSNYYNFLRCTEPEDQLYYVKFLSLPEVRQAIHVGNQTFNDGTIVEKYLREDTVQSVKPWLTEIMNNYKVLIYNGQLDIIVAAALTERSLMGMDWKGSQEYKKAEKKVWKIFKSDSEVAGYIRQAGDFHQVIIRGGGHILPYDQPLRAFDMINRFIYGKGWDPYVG
UniProt Q9H4H8: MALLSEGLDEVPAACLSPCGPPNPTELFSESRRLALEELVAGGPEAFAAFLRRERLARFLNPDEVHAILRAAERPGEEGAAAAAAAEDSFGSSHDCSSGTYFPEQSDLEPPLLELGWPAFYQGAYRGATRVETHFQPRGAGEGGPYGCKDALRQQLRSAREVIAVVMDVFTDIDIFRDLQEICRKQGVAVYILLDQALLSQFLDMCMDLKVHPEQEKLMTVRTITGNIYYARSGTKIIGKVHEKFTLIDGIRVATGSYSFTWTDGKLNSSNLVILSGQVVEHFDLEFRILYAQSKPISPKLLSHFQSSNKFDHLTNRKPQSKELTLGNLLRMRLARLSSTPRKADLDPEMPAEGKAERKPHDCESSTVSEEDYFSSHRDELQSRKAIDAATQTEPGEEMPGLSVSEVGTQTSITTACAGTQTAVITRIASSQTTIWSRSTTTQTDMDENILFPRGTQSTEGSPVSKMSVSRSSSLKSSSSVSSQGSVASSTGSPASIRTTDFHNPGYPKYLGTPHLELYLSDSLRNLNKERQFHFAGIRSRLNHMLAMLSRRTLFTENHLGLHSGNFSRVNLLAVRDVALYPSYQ
UniProt Q9BZX2: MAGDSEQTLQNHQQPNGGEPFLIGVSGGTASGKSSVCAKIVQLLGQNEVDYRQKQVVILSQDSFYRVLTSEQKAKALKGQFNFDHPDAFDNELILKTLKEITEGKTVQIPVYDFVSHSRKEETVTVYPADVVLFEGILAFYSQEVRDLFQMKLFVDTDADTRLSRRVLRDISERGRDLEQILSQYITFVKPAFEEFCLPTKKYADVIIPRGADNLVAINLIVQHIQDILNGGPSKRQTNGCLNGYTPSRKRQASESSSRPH
UniProt Q9H6R0: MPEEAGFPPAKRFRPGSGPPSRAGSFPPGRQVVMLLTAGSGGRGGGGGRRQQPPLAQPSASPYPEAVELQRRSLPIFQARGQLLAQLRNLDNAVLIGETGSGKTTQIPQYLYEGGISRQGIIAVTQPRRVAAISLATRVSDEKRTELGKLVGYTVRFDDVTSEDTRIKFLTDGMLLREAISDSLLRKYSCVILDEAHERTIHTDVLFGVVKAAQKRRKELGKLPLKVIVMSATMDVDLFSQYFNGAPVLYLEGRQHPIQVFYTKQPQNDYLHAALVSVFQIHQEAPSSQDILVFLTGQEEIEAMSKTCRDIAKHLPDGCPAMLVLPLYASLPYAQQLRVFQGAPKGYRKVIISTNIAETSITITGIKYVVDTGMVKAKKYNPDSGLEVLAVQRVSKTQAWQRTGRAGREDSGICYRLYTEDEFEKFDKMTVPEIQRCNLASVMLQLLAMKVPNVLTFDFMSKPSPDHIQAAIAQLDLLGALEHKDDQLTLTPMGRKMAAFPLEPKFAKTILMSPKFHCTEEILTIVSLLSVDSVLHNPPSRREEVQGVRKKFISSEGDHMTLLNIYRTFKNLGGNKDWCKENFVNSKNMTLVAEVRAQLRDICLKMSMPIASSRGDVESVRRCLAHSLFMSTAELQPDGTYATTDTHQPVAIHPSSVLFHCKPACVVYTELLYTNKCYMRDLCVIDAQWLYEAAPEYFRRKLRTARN
UniProt Q9GZP9: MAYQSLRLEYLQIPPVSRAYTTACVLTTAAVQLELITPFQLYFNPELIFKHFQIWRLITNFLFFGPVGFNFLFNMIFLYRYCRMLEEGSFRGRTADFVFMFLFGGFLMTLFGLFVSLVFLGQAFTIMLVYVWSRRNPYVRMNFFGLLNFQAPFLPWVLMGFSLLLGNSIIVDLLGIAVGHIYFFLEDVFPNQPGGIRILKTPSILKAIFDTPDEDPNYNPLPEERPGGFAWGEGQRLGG
UniProt Q9H6R3: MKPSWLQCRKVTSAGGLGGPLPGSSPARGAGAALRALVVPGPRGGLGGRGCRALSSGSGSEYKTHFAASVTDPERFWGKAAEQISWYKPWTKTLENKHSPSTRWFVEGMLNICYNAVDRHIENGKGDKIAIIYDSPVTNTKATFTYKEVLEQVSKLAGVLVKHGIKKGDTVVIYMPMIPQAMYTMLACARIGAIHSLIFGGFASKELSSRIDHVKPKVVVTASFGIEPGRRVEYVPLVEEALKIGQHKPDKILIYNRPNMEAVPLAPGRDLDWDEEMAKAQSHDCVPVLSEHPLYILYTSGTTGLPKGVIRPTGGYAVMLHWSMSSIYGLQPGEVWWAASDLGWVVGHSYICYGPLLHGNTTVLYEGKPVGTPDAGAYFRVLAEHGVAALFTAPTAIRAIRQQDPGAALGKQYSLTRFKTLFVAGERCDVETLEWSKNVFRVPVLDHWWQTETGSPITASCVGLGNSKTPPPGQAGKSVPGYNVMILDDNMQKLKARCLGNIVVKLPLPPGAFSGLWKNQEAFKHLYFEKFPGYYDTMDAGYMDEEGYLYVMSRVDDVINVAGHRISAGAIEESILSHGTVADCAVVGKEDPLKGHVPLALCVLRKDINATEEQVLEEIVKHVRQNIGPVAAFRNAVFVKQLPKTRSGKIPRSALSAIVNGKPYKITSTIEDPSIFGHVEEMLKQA
UniProt Q9H299: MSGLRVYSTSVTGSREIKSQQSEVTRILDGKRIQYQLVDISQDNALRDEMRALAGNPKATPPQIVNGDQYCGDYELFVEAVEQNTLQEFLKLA
UniProt Q9BZZ5: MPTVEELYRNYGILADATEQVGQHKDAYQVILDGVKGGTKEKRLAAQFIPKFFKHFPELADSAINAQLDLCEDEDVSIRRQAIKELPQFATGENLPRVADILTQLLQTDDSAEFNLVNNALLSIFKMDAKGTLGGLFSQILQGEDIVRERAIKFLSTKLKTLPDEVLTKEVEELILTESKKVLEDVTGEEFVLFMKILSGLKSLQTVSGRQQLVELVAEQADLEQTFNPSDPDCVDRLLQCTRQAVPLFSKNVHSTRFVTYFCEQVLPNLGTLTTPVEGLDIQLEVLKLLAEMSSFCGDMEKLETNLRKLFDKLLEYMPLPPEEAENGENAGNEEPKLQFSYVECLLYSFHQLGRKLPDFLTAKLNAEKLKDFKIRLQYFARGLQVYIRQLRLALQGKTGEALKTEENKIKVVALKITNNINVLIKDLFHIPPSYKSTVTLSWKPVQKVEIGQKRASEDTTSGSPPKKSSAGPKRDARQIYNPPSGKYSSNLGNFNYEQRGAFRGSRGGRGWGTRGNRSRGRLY
UniProt Q9H0R3: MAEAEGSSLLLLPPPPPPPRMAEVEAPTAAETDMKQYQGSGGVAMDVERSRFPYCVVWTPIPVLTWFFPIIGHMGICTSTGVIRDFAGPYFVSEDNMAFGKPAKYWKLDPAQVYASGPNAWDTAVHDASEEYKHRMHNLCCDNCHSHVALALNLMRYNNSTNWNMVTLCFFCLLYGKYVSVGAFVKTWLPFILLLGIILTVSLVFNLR
UniProt Q9H0Q0: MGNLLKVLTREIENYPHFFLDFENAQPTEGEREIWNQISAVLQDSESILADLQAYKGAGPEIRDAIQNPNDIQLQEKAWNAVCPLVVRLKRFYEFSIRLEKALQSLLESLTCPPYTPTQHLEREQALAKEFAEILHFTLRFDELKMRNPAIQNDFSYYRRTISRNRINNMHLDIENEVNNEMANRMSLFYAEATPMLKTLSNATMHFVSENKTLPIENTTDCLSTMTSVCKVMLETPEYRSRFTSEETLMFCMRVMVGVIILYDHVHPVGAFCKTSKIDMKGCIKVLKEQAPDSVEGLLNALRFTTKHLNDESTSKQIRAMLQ
UniProt Q9H7N4: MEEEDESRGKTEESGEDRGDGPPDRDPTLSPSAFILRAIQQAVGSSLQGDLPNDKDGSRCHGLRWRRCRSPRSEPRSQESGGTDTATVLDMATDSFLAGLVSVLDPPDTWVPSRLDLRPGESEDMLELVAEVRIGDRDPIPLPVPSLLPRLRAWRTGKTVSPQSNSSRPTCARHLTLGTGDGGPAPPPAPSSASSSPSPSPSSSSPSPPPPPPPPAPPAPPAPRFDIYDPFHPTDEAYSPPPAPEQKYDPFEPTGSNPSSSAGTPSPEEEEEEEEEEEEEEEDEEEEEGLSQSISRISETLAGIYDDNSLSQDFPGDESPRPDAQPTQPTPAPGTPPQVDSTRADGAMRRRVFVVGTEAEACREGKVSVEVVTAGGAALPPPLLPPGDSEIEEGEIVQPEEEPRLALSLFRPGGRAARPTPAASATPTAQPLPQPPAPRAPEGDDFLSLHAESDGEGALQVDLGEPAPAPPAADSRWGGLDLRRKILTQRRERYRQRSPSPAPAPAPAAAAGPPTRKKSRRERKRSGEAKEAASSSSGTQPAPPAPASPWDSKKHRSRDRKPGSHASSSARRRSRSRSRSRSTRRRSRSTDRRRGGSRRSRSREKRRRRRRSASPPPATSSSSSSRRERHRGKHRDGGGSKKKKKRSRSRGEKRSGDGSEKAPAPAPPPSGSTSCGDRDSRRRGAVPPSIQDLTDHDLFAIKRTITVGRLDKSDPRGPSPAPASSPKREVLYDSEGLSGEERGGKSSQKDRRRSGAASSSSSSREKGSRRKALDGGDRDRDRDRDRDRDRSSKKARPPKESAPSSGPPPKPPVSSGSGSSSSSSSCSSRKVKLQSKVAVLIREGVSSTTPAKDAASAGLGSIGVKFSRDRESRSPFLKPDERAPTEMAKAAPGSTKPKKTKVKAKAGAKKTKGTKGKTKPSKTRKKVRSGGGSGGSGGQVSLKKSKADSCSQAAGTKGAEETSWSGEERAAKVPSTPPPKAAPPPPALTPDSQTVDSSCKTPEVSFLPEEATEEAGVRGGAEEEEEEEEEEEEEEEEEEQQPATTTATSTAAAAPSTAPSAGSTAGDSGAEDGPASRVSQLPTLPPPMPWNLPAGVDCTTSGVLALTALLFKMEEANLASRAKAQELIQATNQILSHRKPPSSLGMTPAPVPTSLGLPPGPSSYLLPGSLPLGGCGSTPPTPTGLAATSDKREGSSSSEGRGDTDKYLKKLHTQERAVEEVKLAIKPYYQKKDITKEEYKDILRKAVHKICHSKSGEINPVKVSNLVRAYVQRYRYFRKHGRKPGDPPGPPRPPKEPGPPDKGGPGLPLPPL
UniProt Q9H0X4: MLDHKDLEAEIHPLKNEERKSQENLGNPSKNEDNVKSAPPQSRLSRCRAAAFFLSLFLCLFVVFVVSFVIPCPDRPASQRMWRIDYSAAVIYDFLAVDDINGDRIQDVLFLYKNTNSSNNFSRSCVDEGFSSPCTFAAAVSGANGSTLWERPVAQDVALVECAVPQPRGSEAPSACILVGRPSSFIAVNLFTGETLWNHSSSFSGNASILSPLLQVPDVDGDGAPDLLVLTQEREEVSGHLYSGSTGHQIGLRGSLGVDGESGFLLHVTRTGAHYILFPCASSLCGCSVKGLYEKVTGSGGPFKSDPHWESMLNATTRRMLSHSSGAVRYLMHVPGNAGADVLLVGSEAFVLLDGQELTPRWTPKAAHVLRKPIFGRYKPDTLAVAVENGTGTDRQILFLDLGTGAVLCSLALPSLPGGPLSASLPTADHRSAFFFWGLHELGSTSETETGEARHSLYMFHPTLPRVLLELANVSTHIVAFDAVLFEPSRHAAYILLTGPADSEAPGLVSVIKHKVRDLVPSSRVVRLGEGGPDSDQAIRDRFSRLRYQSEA
UniProt Q9H8M2, whole entry: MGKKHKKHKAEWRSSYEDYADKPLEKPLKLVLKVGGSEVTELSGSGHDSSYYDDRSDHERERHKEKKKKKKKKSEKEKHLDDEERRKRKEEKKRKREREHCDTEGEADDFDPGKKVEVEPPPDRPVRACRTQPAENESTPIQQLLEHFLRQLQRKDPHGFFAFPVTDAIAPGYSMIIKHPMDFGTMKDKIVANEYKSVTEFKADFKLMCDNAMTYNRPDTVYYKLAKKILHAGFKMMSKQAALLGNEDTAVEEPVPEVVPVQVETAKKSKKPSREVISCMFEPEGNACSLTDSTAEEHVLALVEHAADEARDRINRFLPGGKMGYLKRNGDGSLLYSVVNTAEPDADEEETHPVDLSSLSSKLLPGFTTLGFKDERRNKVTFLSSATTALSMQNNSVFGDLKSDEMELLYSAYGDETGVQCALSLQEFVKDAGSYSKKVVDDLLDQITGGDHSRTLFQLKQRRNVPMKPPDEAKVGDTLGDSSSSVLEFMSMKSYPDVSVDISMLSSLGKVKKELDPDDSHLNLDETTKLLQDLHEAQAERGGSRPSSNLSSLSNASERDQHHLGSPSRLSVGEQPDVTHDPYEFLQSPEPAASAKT

Target | melting temperature shift (MBE1 concentration: 100 nM) | melting temperature shift (MBE1 concentration: 1 uM)
SPNS1 (UniProt Q9H2V7) | -2.68 °C | -0.0366 °C
UBXN6 (UniProt Q9BZV1) | -0.724 °C | -0.647 °C
UniProt Q9GZR5 | -0.262 °C | -0.148 °C
MRPL37 (UniProt Q9BZE1) | 0.397 °C | 0.721 °C
NELFA (UniProt Q9H3P2) | -0.597 °C | -0.295 °C
UniProt Q9H0V1 | -0.604 °C | 0.263 °C
VPS33B (UniProt Q9H267) | -0.823 °C | -0.953 °C
UniProt Q9BZF3 | -0.395 °C | -0.0612 °C
MRPL13 (UniProt Q9BYD1) | -0.0855 °C | -0.714 °C
UniProt Q9H6L2 | -0.293 °C | 0.0122 °C
UniProt Q9C0H9 | 4.96 °C | 4.3 °C
PCIF1 (UniProt Q9H4Z3) | 0.0329 °C | -0.103 °C
UniProt Q9H3G5 | -1.77 °C | -0.981 °C
SRXN1 (UniProt Q9BYN0) | 0.977 °C | 0.941 °C
SMARCAD1 (UniProt Q9H4L7) | -1.07 °C | -0.576 °C
COMMD4 (UniProt Q9H0A8) | 0.531 °C | -0.128 °C
FAM188A (UniProt Q9H8M7) | -0.114 °C | 0.469 °C
FAM83D (UniProt Q9H4H8) | -0.776 °C | 0.348 °C
UCK2 (UniProt Q9BZX2) | -1.31 °C | -1.24 °C
UniProt Q9H211 | -1.74 °C | -1.29 °C
UniProt Q9H204 | -1.09 °C | -1.5 °C
UniProt Q9H7B2 | 1.07 °C | 0.623 °C
NOL11 (UniProt Q9H8H0) | -0.88 °C | 0.0671 °C
UniProt Q9H6R0 | -0.682 °C | -0.706 °C
UniProt Q9GZN7 | -0.72 °C | -0.757 °C
DERL2 (UniProt Q9GZP9) | -1.24 °C | 0.318 °C

Looked up above.
UniProt Q9H204 – melting temperature shift (MBE1 concentration: 1 uM): -1.5 °C
SRXN1 (UniProt Q9BYN0) – melting temperature shift (MBE1 concentration: 100 nM): 0.977 °C
COMMD4 (UniProt Q9H0A8) – melting temperature shift (MBE1 concentration: 100 nM): 0.531 °C
MRPL37 (UniProt Q9BZE1) – melting temperature shift (MBE1 concentration: 1 uM): 0.721 °C

Later entries

Target | melting temperature shift (MBE1 concentration: 100 nM) | melting temperature shift (MBE1 concentration: 1 uM)
UniProt Q9H6R3 | -0.449 °C | -1.4 °C
UniProt Q9BZD3 | -0.44 °C | -1.18 °C
SH3BGRL3 (UniProt Q9H299) | 0.678 °C | 0.635 °C
MRPL46 (UniProt Q9H2W6) | 0.806 °C | 0.861 °C
TUT1 (UniProt Q9H6E5) | -0.0705 °C | 0.308 °C
API5 (UniProt Q9BZZ5) | -0.168 °C | -0.121 °C
TRIOBP (UniProt Q9H2D6) | -1.29 °C | -1.52 °C
NO66 (UniProt Q9H6W3) | -1.3 °C | -1.01 °C
PTGES2 (UniProt Q9H7Z7) | -0.946 °C | 0.443 °C
EDEM3 (UniProt Q9BZQ6) | -0.49 °C | 1.03 °C
AMBRA1 (UniProt Q9C0C7) | -0.47 °C | -0.306 °C
UniProt Q9BYI3 | -1.78 °C | -1.29 °C
TBL1XR1 (UniProt Q9BZK7) | -1.78 °C | -2.67 °C
UniProt Q9H0R3 | -2.15 °C | -3.29 °C
LSG1 (UniProt Q9H089) | -0.494 °C | -0.447 °C
UniProt Q9H0Q0 | -0.376 °C | 13.4 °C
UniProt Q9H7N4 | -2.33 °C | -1.69 °C
ZHX3 (UniProt Q9H4I2) | -1.64 °C | -0.545 °C
PANK2 (UniProt Q9BZ23) | -0.807 °C | 0.104 °C
UniProt Q9H8G2 | -1.31 °C | -0.243 °C
PRKD2 (UniProt Q9BZL6) | 0.0753 °C | 0.00941 °C
NARFL (UniProt Q9H6Q4) | 0.449 °C | 0.932 °C
MRPS26 (UniProt Q9BYN8) | -0.243 °C | 0.179 °C
FAM234A (UniProt Q9H0X4) | -4.32 °C | -2.33 °C
BRD9 (UniProt Q9H8M2) | -0.34 °C | -0.365 °C

Source: the supplement of paper PMC12595434, “Development of retinoid nuclear receptor pathway antagonists through targeting aldehyde dehydrogenase 1A3” (iScience, 2025)
